{"source": "paper PMC10796436", "about": "“Peptidyl nitroalkene inhibitors of main protease rationalized by computational and crystallographic investigations as antivirals against SARS-CoV-2” (Communications Chemistry, 2024)", "target": "M^pro (Severe acute respiratory syndrome coronavirus 2, UniProt P0DTD1)", "type": "biochemical", "settings": "triplicate wells", "protocol": "Buffer: 20 mM Tris, 0.1 mM EDTA, 1 mM DTT, 200 mM NaCl pH = 7.5. For the dilution assay Nirmatrelvir[21] was used as a reversible control and LM188[54] as an irreversible control (Fig. 10).\nThe incubation was done at RT for 30 min in assay buffer. DMSO was used as a control. After incubation the Enzyme/Inhibitor (or DMSO) mixtures were diluted 100-fold in assay buffer.\nThe preincubation was done in assay buffer (20 mM Tris, 0.1 mM EDTA, 1 mM DTT, 200 mM NaCl, pH = 7.5), at RT for 30 min. After incubation the mixtures were diluted […]\nproteolytic activity of the enzyme was measured as described for the enzymatic assays using the […]\nactivity was measured over 1 h.\nInhibition assay58. Trypsin: Enzyme: bovine trypsin purchased from Sigma-Aldrich (St. Louis, […]\nSubstrate: Cbz-FR-AMC purchased from Bachem (Bubendorf, Switzerland), [Substrate]: 40 µM […]\nThe activity against bovine trypsin was tested at 20 µM inhibitor concentration. […]", "note": "Where “and” joins values, the source holds several entries; their conditions need not be identical. Equal values may be shown once. Read-outs that look alike come from different tables or passages of the source. Further values from the same series stand in other lists."}
{"smiles": "COc1cccc2[nH]c(C(=O)N[C@@H](CC(C)C)C(=O)N[C@H](/C=C/S(=O)(=O)c3ccccc3)C[C@@H]3CCNC3=O)cc12", "note": "[LM188, reference compound]", "values": [{"measurement": "Fluorescence reading (progress curve)", "setting": "Time 0 s", "result": "258 and 243 and 247"}, {"measurement": "Fluorescence reading (progress curve)", "setting": "Time 30.009 s", "result": "258 and 247 and 250"}, {"measurement": "Fluorescence reading (progress curve)", "setting": "Time 60.029 s", "result": "253 and 248"}, {"measurement": "Fluorescence reading (progress curve)", "setting": "Time 90.04 s", "result": "257 and 248 and 252"}, {"measurement": "Fluorescence reading (progress curve)", "setting": "Time 120.057 s", "result": "254 and 248 and 250"}, {"measurement": "Fluorescence reading (progress curve)", "setting": "Time 150.063 s", "result": "254 and 244 and 250"}, {"measurement": "Fluorescence reading (progress curve)", "setting": "Time 480.18 s", "result": 248}, {"measurement": "Fluorescence reading (progress curve)", "setting": "Time 510.193 s", "result": "253 and 244 and 250"}, {"measurement": "Fluorescence reading (progress curve)", "setting": "Time 540.2 s", "result": "250 and 246"}, {"measurement": "Fluorescence reading (progress curve)", "setting": "Time 570.216 s", "result": "253 and 244"}, {"measurement": "Fluorescence reading (progress curve)", "setting": "Time 600.232 s", "result": "252 and 246 and 245"}, {"measurement": "Fluorescence reading (progress curve)", "setting": "Time 630.25 s", "result": "253 and 242 and 246"}, {"measurement": "Fluorescence reading (progress curve)", "setting": "Time 660.257 s", "result": "250 and 244 and 246"}, {"measurement": "Fluorescence reading (progress curve)", "setting": "Time 690.266 s", "result": "252 and 245 and 248"}, {"measurement": "Fluorescence reading (progress curve)", "setting": "Time 720.275 s", "result": "255 and 242 and 244"}, {"measurement": "Fluorescence reading (progress curve)", "setting": "Time 750.289 s", "result": "255 and 243 and 248"}, {"measurement": "Fluorescence reading (progress curve)", "setting": "Time 780.305 s", "result": "249 and 242 and 246"}, {"measurement": "Fluorescence reading (progress curve)", "setting": "Time 810.312 s", "result": "254 and 240 and 244"}, {"measurement": "Fluorescence reading (progress curve)", "setting": "Time 840.326 s", "result": "254 and 240 and 244"}, {"measurement": "Fluorescence reading (progress curve)", "setting": "Time 870.344 s", "result": "254 and 242 and 244"}, {"measurement": "Fluorescence reading (progress curve)", "setting": "Time 900.356 s", "result": "255 and 242 and 245"}, {"measurement": "Fluorescence reading (progress curve)", "setting": "Time 930.361 s", "result": "256 and 239 and 245"}, {"measurement": "Fluorescence reading (progress curve)", "setting": "Time 960.372 s", "result": "254 and 242 and 247"}, {"measurement": "Fluorescence reading (progress curve)", "setting": "Time 990.388 s", "result": "250 and 243 and 244"}, {"measurement": "Fluorescence reading (progress curve)", "setting": "Time 1020.4 s", "result": "255 and 239 and 241"}, {"measurement": "Fluorescence reading (progress curve)", "setting": "Time 1050.42 s", "result": "256 and 241 and 242"}, {"measurement": "Fluorescence reading (progress curve)", "setting": "Time 1080.42 s", "result": "251 and 238 and 243"}, {"measurement": "Fluorescence reading (progress curve)", "setting": "Time 1110.44 s", "result": "252 and 237 and 242"}, {"measurement": "Fluorescence reading (progress curve)", "setting": "Time 1140.45 s", "result": "253 and 237 and 243"}, {"measurement": "Fluorescence reading (progress curve)", "setting": "Time 1170.46 s", "result": "254 and 239 and 241"}, {"measurement": "Fluorescence reading (progress curve)", "setting": "Time 1200.47 s", "result": "253 and 238 and 240"}, {"measurement": "Fluorescence reading (progress curve)", "setting": "Time 1230.49 s", "result": "254 and 239 and 243"}, {"measurement": "Fluorescence reading (progress curve)", "setting": "Time 1260.5 s", "result": "252 and 239 and 242"}, {"measurement": "Fluorescence reading (progress curve)", "setting": "Time 1290.52 s", "result": "252 and 238 and 239"}, {"measurement": "Fluorescence reading (progress curve)", "setting": "Time 1320.53 s", "result": "249 and 235 and 241"}, {"measurement": "Fluorescence reading (progress curve)", "setting": "Time 1350.55 s", "result": "255 and 237 and 243"}, {"measurement": "Fluorescence reading (progress curve)", "setting": "Time 1380.55 s", "result": "254 and 235 and 241"}, {"measurement": "Fluorescence reading (progress curve)", "setting": "Time 1410.56 s", "result": "254 and 236 and 241"}, {"measurement": "Fluorescence reading (progress curve)", "setting": "Time 1440.57 s", "result": "252 and 233 and 241"}, {"measurement": "Fluorescence reading (progress curve)", "setting": "Time 1470.58 s", "result": "251 and 238 and 239"}, {"measurement": "Fluorescence reading (progress curve)", "setting": "Time 1500.6 s", "result": "253 and 235 and 240"}, {"measurement": "Fluorescence reading (progress curve)", "setting": "Time 1530.61 s", "result": "253 and 236 and 241"}, {"measurement": "Fluorescence reading (progress curve)", "setting": "Time 1560.62 s", "result": "251 and 235 and 243"}, {"measurement": "Fluorescence reading (progress curve)", "setting": "Time 1590.64 s", "result": "254 and 238 and 240"}, {"measurement": "Fluorescence reading (progress curve)", "setting": "Time 1620.64 s", "result": "254 and 235 and 238"}, {"measurement": "Fluorescence reading (progress curve)", "setting": "Time 1650.65 s", "result": "250 and 235 and 241"}, {"measurement": "Fluorescence reading (progress curve)", "setting": "Time 1680.66 s", "result": "254 and 233 and 241"}, {"measurement": "Fluorescence reading (progress curve)", "setting": "Time 1710.68 s", "result": "254 and 234 and 238"}, {"measurement": "Fluorescence reading (progress curve)", "setting": "Time 1740.69 s", "result": "254 and 237 and 238"}, {"measurement": "Fluorescence reading (progress curve)", "setting": "Time 1770.7 s", "result": "253 and 235 and 240"}, {"measurement": "Fluorescence reading (progress curve)", "setting": "Time 1800.72 s", "result": "254 and 232 and 240"}, {"measurement": "Fluorescence reading (progress curve)", "setting": "Time 1830.73 s", "result": "252 and 232 and 238"}, {"measurement": "Fluorescence reading (progress curve)", "setting": "Time 1860.74 s", "result": "249 and 231 and 241"}, {"measurement": "Fluorescence reading (progress curve)", "setting": "Time 1890.75 s", "result": "254 and 230 and 241"}, {"measurement": "Fluorescence reading (progress curve)", "setting": "Time 1920.77 s", "result": "251 and 230 and 237"}, {"measurement": "Fluorescence reading (progress curve)", "setting": "Time 1950.78 s", "result": "250 and 233 and 239"}, {"measurement": "Fluorescence reading (progress curve)", "setting": "Time 1980.8 s", "result": "251 and 230 and 240"}, {"measurement": "Fluorescence reading (progress curve)", "setting": "Time 2010.81 s", "result": "255 and 231 and 237"}, {"measurement": "Fluorescence reading (progress curve)", "setting": "Time 2040.83 s", "result": "251 and 230 and 238"}, {"measurement": "Fluorescence reading (progress curve)", "setting": "Time 2070.84 s", "result": "250 and 231 and 236"}, {"measurement": "Fluorescence reading (progress curve)", "setting": "Time 2100.86 s", "result": "251 and 228 and 238"}, {"measurement": "Fluorescence reading (progress curve)", "setting": "Time 2130.86 s", "result": "248 and 230 and 238"}, {"measurement": "Fluorescence reading (progress curve)", "setting": "Time 2160.87 s", "result": "250 and 229 and 238"}, {"measurement": "Fluorescence reading (progress curve)", "setting": "Time 2190.89 s", "result": "254 and 228 and 241"}, {"measurement": "Fluorescence reading (progress curve)", "setting": "Time 2220.91 s", "result": "253 and 230 and 237"}, {"measurement": "Fluorescence reading (progress curve)", "setting": "Time 2250.92 s", "result": "252 and 227 and 237"}, {"measurement": "Fluorescence reading (progress curve)", "setting": "Time 2280.93 s", "result": "252 and 227 and 235"}, {"measurement": "Fluorescence reading (progress curve)", "setting": "Time 2310.95 s", "result": "255 and 227 and 236"}, {"measurement": "Fluorescence reading (progress curve)", "setting": "Time 2340.96 s", "result": "253 and 225 and 239"}, {"measurement": "Fluorescence reading (progress curve)", "setting": "Time 2370.96 s", "result": "252 and 226 and 240"}, {"measurement": "Fluorescence reading (progress curve)", "setting": "Time 2400.97 s", "result": "251 and 226 and 236"}, {"measurement": "Fluorescence reading (progress curve)", "setting": "Time 2430.99 s", "result": "250 and 227 and 240"}, {"measurement": "Fluorescence reading (progress curve)", "setting": "Time 2461.01 s", "result": "251 and 228 and 236"}, {"measurement": "Fluorescence reading (progress curve)", "setting": "Time 2491.03 s", "result": "250 and 227 and 234"}, {"measurement": "Fluorescence reading (progress curve)", "setting": "Time 2521.03 s", "result": "249 and 226 and 236"}, {"measurement": "Fluorescence reading (progress curve)", "setting": "Time 2551.05 s", "result": "250 and 225 and 237"}, {"measurement": "Fluorescence reading (progress curve)", "setting": "Time 2581.07 s", "result": "253 and 227 and 237"}, {"measurement": "Fluorescence reading (progress curve)", "setting": "Time 2611.08 s", "result": "249 and 223 and 234"}, {"measurement": "Fluorescence reading (progress curve)", "setting": "Time 2641.09 s", "result": "247 and 224 and 233"}, {"measurement": "Fluorescence reading (progress curve)", "setting": "Time 2671.11 s", "result": "253 and 225 and 235"}, {"measurement": "Fluorescence reading (progress curve)", "setting": "Time 2701.12 s", "result": "253 and 223 and 234"}, {"measurement": "Fluorescence reading (progress curve)", "setting": "Time 2731.13 s", "result": "251 and 224 and 234"}, {"measurement": "Fluorescence reading (progress curve)", "setting": "Time 2761.14 s", "result": "248 and 224 and 234"}, {"measurement": "Fluorescence reading (progress curve)", "setting": "Time 2791.15 s", "result": "252 and 224 and 233"}, {"measurement": "Fluorescence reading (progress curve)", "setting": "Time 2821.16 s", "result": "247 and 224 and 234"}, {"measurement": "Fluorescence reading (progress curve)", "setting": "Time 2851.18 s", "result": "249 and 223 and 233"}]}
